Data from the primary screen of doi:10.1371/journal.pone.0140310, rounded.

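Human melanoma cells were exposed to two drugs together for 72 h in 1,536-well plates and read by automated microscopy after fixing and staining. Each value is the count of nuclei relative to DMSO-treated wells, in %, so that 100 equals the control. Concentrations were fixed for each drug; these are the higher of two levels. The file gives one value for each pair and line, without errors, so small differences may be noise.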
Only some of the drugs and lines screened are listed, without regard to their results.

Drug key:
T0901317: O=S(=O)(c1ccccc1)N(CC(F)(F)F)c1ccc(C(O)(C(F)(F)F)C(F)(F)F)cc1 at 7 µM
CP-690550: C[C@@H]1CCN(C(=O)CC#N)C[C@@H]1N(C)c1ncnc2[nH]ccc12 at 5 µM
IMD-0354: O=C(Nc1cc(C(F)(F)F)cc(C(F)(F)F)c1)c1cc(Cl)ccc1O at 0.08 µM
U73122: COc1ccc2c(c1)CCC1C2CCC2(C)C(NCCCCCCN3C(=O)C=CC3=O)CCC12 (stereo not drawn) at 2 µM
NVP-TAE684: COc1cc(N2CCC(N3CCN(C)CC3)CC2)ccc1Nc1ncc(Cl)c(Nc2ccccc2S(=O)(=O)C(C)C)n1 at 0.4 µM
vorinostat: O=C(CCCCCCC(=O)Nc1ccccc1)NO at 0.4 µM
crizotinib: C[C@@H](Oc1cc(-c2cnn(C3CCNCC3)c2)cnc1N)c1c(Cl)ccc(F)c1Cl at 1 µM
enzastaurin: Cn1cc(C2=C(c3cn(C4CCN(Cc5ccccn5)CC4)c4ccccc34)C(=O)NC2=O)c2ccccc21 at 4 µM
lenalidomide: Nc1cccc2c1CN(C1CCC(=O)NC1=O)C2=O (stereo not drawn) at 5 µM
lapatinib: CS(=O)(=O)CCNCc1ccc(-c2ccc3ncnc(Nc4ccc(OCc5cccc(F)c5)c(Cl)c4)c3c2)o1 at 4 µM
GW0742: Cc1cc(SCc2sc(-c3ccc(C(F)(F)F)c(F)c3)nc2C)ccc1OCC(=O)O at 10 µM
KU-0063794: COc1ccc(-c2ccc3c(N4CCOCC4)nc(N4C[C@@H](C)O[C@@H](C)C4)nc3n2)cc1CO at 0.1 µM

| Drugs | C32 |
|---|---|
| lapatinib + lenalidomide | 92.9 |
| crizotinib + U73122 | 85.8 |
| IMD-0354 + crizotinib | 105 |
| enzastaurin + vorinostat | 108 |
| CP-690550 + NVP-TAE684 | 76.8 |
| GW0742 + NVP-TAE684 | 84.1 |
| NVP-TAE684 + lenalidomide | 82.7 |
| vorinostat + lenalidomide | 85.7 |
| CP-690550 + T0901317 | 99.6 |
| enzastaurin + GW0742 | 86.5 |
| NVP-TAE684 + vorinostat | 87.0 |
| lapatinib + U73122 | 56.5 |
| CP-690550 + crizotinib | 89.5 |
| IMD-0354 + NVP-TAE684 | 82.0 |
| T0901317 + vorinostat | 90.5 |
| T0901317 + lenalidomide | 111 |
| vorinostat + CP-690550 | 89.9 |
| crizotinib + T0901317 | 104 |
| KU-0063794 + enzastaurin | 89.0 |
| IMD-0354 + U73122 | 98.4 |
| vorinostat + KU-0063794 | 81.1 |
| GW0742 + T0901317 | 91.2 |
| U73122 + enzastaurin | 81.6 |
| lapatinib + crizotinib | 73.0 |
| KU-0063794 + lenalidomide | 94.6 |
| IMD-0354 + T0901317 | 105 |
| lenalidomide + CP-690550 | 126 |
| NVP-TAE684 + crizotinib | 64.3 |
| CP-690550 + GW0742 | 97.8 |
| lapatinib + NVP-TAE684 | 81.3 |
| KU-0063794 + lapatinib | 106 |
| U73122 + GW0742 | 83.1 |
| U73122 + CP-690550 | 97.6 |
| U73122 + lenalidomide | 69.8 |
| enzastaurin + T0901317 | 88.1 |

The last 3 entries again:

Drugs	C32
U73122 + CP-690550	97.6
U73122 + lenalidomide	69.8
enzastaurin + T0901317	88.1